Values joined by “and” are separate entries in the source; they are usually repeats but may differ in a detail not shown here. Equal values may be shown once. This is one part of the list. Shown are side measurements of this screen, not its main read-out; they come without a call. Most of these compounds were active or inconclusive in the main read-out, so they are no random draw. The note in brackets gives the kind of curve behind each potency; many fits are weak.

This assay is described as follows: Cell signaling CRE-BLA (Fsk stim). The conditions noted are these: CHO CRE-bla reporter (cAMP response element driving beta-lactamase), forskolin EC10, beta-lactamase ratio; measured here: 460 nm blue channel. The procedure, abridged: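 Using CellSensor CRE-bla CHO cells in Opti-MEM with 0.5% dialyzed FBS, compounds were titrated with EC10 NKH 477 for 3 h at 37 °C. CCF4 ratio (460/530 nm) gave %Activity; AC50 derived.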
Consider `CN(C)c1ccc(-c2nn3c(-c4ccccc4Cl)nnc3s2)cc1`, for which the AC50 (in general, the concentration at which the activity in the assay is half-maximal) was 2 µM [rising, full curve].

On to `O=c1[nH]c(-c2ccccc2O)nc2c1CCCC2`, for which the AC50 is 0.0316 µM [falling, full curve, poor fit].

Consider `CNc1nc(-c2ccccc2Cl)nc2ccccc12`, for which the AC50 was 12.6 µM [rising, partial curve].

Regarding `Cc1c(O)cccc1C(=O)N[C@@H](CSc1ccccc1)[C@H](O)CN1C[C@H]2CCCC[C@H]2C[C@H]1C(=O)NC(C)(C)C`, the AC50 was 15.8 µM [falling, partial curve, poor fit].

Consider `COc1cc(Br)cc(-c2nc3c(c(=O)[nH]c(=O)n3Cc3ccccc3)n2C)c1O`, for which the AC50 is 7.94 µM [rising, partial curve].

For `O=C(CSc1nnc(-c2cccnc2)n1Cc1ccco1)N1c2ccccc2Sc2ccccc21`, the AC50 was 25.1 µM [rising, single point].

For `Cc1cc(C)n(-c2nc3ccccc3nc2Nc2ccc(CC(=O)O)cc2)n1`, the AC50 is 12.6 µM [rising, single point].

`COc1ccc(-c2nc3cnc(N4CCOCC4)nc3n(-c3ccc(OC)cc3)c2=O)cc1`: the AC50 is 10 µM [rising, partial curve].

As for `CCCn1c(C)nc2c(NCCN3CCCC3)nc(C)nc21`, the AC50 is 12.6 µM [rising, single point].

As to `COc1cccc2cc(C(=O)NC3CC(C)(C)NC(C)(C)C3)c(=O)oc12`, the AC50 was 0.00398 µM [falling, full curve, poor fit].

Consider `CCOc1ccc(-c2nc(C#N)c(N3CCCCCC3)o2)cc1`, for which the AC50 is 3.16 µM [rising, full curve].

For `O=C(O)C1CC(=O)N(Cc2ccc3c(c2)OCO3)C1` (configuration not stated), the AC50 was 2.51 µM [falling, full curve].

Take `O=C1CC(c2ccc(F)cc2)CC(O)=C1C=NCCN1CCN(C(=O)Nc2ccccc2)CC1` (configuration not stated): the AC50 was 12.6 µM [rising, single point].

As to `N#Cc1cccc(NC(=O)COc2ccc(-n3ccnc3)cc2)c1`, the AC50 is 5.01 µM [falling, single point].

For `Cc1nc(N2CCOCC2)[nH]c(=O)c1CCC(C)C`, the AC50 is 25.1 µM [falling, single point].

Take `c1cc(-n2cnnn2)ccc1NC1=NCCC1`: the AC50 was 0.316 µM [falling, full curve].

On to `CC(C)OC(=O)c1c(NC(=O)c2cccs2)sc2c1CCCC2`, for which the AC50 was 15.8 µM [rising, partial curve].

As for `NS(=O)(=O)c1ccc(NC(=O)COC(=O)CSc2n[nH]c(-c3ccccc3)n2)cc1`, the AC50 is 1 µM [falling, full curve].

With `COc1ccc(N=c2oc3cc(O)ccc3cc2C(=O)NCC2CCCO2)c(OC)c1` (configuration not stated), the AC50 is 12.6 µM [rising, partial curve].

On to `CC(C)CC(=O)NCC(C)NC(=O)CC(C)C` (configuration not stated), for which the AC50 was 2.51 µM [rising, partial curve, poor fit].

On to `CSc1nc(-c2ccco2)nn1C(=O)c1ccc(C)cc1`, for which the AC50 is 12.6 µM [falling, partial curve].

For `CCOC(=O)N1CCN(C(=O)CSCC(=O)N=c2sc3ccccc3n2C)CC1`, the AC50 was 0.1 µM [falling, single point].

In the case of `CCOC(=O)c1sc(N)nc1-c1ccccc1`, the AC50 is 7.94 µM [rising, partial curve].

Consider `CCOC(=O)C1CCN(C(=O)c2ccc3c(c2)OCO3)CC1`, for which the AC50 is 25.1 µM [falling, single point].

For the molecule `OC(COc1ccc2ccccc2c1Cl)CN1CCOCC1` (configuration not stated), the AC50 was 0.00398 µM [falling, full curve, poor fit].

Regarding `CCOC(=O)COc1ccc(C2NC(C(=O)O)CS2)cc1` (configuration not stated), the AC50 is 1.26 µM [falling, partial curve].

On to `COCCN1Cc2cccc(C(=O)Nc3c(C)cccc3C)c2C1=O`, for which the AC50 was 0.251 µM [falling, full curve, poor fit].

Turning to `COc1ccccc1C1C(C(=O)c2sc(C)nc2C)=C(O)C(=O)N1CCN1CCOCC1` (configuration not stated), the AC50 is 5.01 µM [rising, single point].

In the case of `O=C(Oc1ccccc1)N1CCC2(CCCN(c3ccccn3)C2)CC1`, the AC50 is 25.1 µM [rising, single point].

With `CC(=O)N1CCC2(CCCN(c3ccc(-c4ccccc4)cc3)C2)CC1`, the AC50 was 1.58 µM [rising, partial curve].

As to `CN1C(=O)c2cccc3c(S(=O)(=O)NCc4ccco4)ccc1c23`, the concentration at half-maximal activity (AC50) was 25.1 µM [rising, partial curve].

Consider `Cc1cc(N2CCN(C(=O)c3ccco3)CC2)n2nc(C)c(-c3ccccc3)c2n1`, for which the AC50 was 10 µM [rising, partial curve].

Turning to `CC(C)CSc1nc2c(c(=O)[nH]c(=O)n2C)n1CC(O)COc1cccc2ccccc12` (configuration not stated), the AC50 was 12.6 µM [rising, single point].

As for `CC1=C(C#N)C(Nc2cccc(C)n2)(C(F)(F)F)C(=O)N1` (configuration not stated), the AC50 was 0.316 µM [falling, full curve].

Take `CCCC(=O)N(Cc1cc2cc(C)ccc2[nH]c1=O)c1ccccc1OC`: the AC50 was 5.01 µM [rising, single point].

As for `O=C(Nc1sccc1C(=O)NCc1ccco1)c1cccnc1`, the AC50 was 10 µM [rising, partial curve].

Regarding `CCc1ccccc1NC(=O)c1ccc(F)c(S(=O)(=O)N2CCC(C(N)=O)CC2)c1`, the AC50 was 5.01 µM [falling, single point].

Regarding `COc1ccc(CC2S/C(=C(\C#N)C(=O)NCc3ccco3)N(c3ccc(C)cc3)C2=O)cc1` (configuration not stated), the AC50 was 20 µM [rising, single point].

On to `O=C(c1cnccn1)N1CCC2(CCCN(c3cccc(-c4ccccc4)c3)C2)CC1`, for which the AC50 was 25.1 µM [rising, single point].

With `Cc1ccc(-c2nn3c(-c4ccco4)nnc3c3ccccc23)cc1S(=O)(=O)N1CCOCC1`, the AC50 was 12.6 µM [rising, single point].

On to `COc1ccc(-n2c(=O)c(-c3cccs3)nc3cnc(N4CCNCC4)nc32)cc1`, for which the AC50 was 3.16 µM [rising, full curve].

`Cc1ccc2nnc(Cl)n2n1`: the AC50 was 3.16 µM [falling, partial curve, poor fit].

Consider `COc1cccc(NS(=O)(=O)c2c(C)cc(C)cc2C)c1`, for which the AC50 was 0.398 µM [falling, full curve].

As for `COC(=O)[C@@]1(Cc2ccccc2)[C@H]2c3cc(C(=O)N4CCCC4)n(Cc4ccc(C)o4)c3C[C@H]2CN1C(=O)c1ccccc1`, the AC50 was 2 µM [rising, partial curve].

As for `Nc1ccc(N=Nc2ccccc2)c(N)n1`, the AC50 is 10 µM [falling, partial curve] and 15.8 µM [falling, single point].

For the molecule `COc1ccc2[nH]cc(CCNc3ncnc4ccc(-c5cccc(C#N)c5)cc34)c2c1`, the AC50 was 2 µM [rising, full curve, poor fit].

Take `Cc1ccc(OCCCC(=O)Nc2ccc3c(c2)OCO3)cc1`: the AC50 was 1 µM [falling, full curve, poor fit].

As to `CCCn1c2c(c(O)c(C(=O)NC)c1=O)CCCC2`, the AC50 was 10 µM [rising, partial curve].

Consider `Cc1ccsc1CNn1cnnc1SCc1ccccc1F`, for which the AC50 was 0.00316 µM [falling, full curve, poor fit].

Turning to `COCCn1c(C)cc(C(=O)COc2nc3ccccc3nc2C)c1C`, the concentration at half-maximal activity (AC50) was 25.1 µM [falling, single point].

As to `O=C(Nc1ccc2c(c1)OCO2)c1cnn2c(C(F)(F)F)cc(-c3ccco3)nc12`, the AC50 is 3.98 µM [rising, partial curve].

As to `CCCCCN(C(=O)NC(=O)Nn1cnnc1)S(C)(=O)=O`, the AC50 was 0.0501 µM [falling, partial curve].

As for `CC1=C(C(=O)Nc2ccc(Cl)cc2)C(c2cccs2)n2nnnc2N1` (configuration not stated), the AC50 was 0.398 µM [falling, full curve].

As for `CCc1c(C)c2cc(Cl)c(O)c(CN(CC)CC)c2oc1=O`, the AC50 was 10 µM [rising, partial curve].

With `Cc1cc(C)nc(SCc2nnc(SCC(=O)Nc3ncc(C)s3)n2Cc2ccco2)n1`, the AC50 was 10 µM [rising, partial curve].

In the case of `COC(=O)c1ccc(C=O)cc1`, the AC50 was 0.794 µM [falling, full curve, poor fit].

With `CCOC(=O)C1CCN(c2nc(-c3ccccc3)nc3c2oc2ccccc23)CC1`, the AC50 is 25.1 µM [rising, single point].

With `COc1cc(S(=O)(=O)NCc2ccccc2)ccc1F`, the AC50 is 5.01 µM [falling, full curve, poor fit].

On to `Cc1cc2c(c(=O)n1CCN(C)C)C(c1ccncc1)C(C#N)=C(N)O2` (configuration not stated), for which the AC50 is 2.51 µM [falling, full curve].

On to `COc1ccccc1N1CCN(CC(=O)Nc2ccc(C)c(F)c2)CC1`, for which the AC50 was 0.398 µM [falling, full curve].

Take `COc1ccc2nc(N3CCCCC3)c(C#N)cc2c1`: the AC50 was 12.6 µM [rising, single point].

Regarding `O=C(NCCO)c1c(O)c2cccc3c2n(c1=O)CC3`, the AC50 is 0.0316 µM [falling, partial curve, poor fit].

Take `CCCCCCNc1cc2n(c(=O)n1)CCc1cc(OC)c(OC)cc1-2`: the AC50 was 0.794 µM [rising, full curve].

Consider `CCOc1ccc(C(C)=O)cc1COc1ccc(-n2cnnn2)cc1`, for which the AC50 is 25.1 µM [rising, single point].

Turning to `O=C(NCc1cccnc1)NC1(C(F)(F)F)Oc2ccccc2O1`, the AC50 is 20 µM [falling, single point].

Consider `COC(=O)c1c(NC(=O)c2nc3ccccc3s2)sc2c1CCN(C(C)=O)C2`, for which the AC50 was 3.98 µM [rising, full curve].

As to `Cc1ccc(-c2nnn(CC(=O)N(Cc3cccs3)C(C(=O)NC(C)(C)C)c3ccco3)n2)o1` (configuration not stated), the AC50 is 7.94 µM [rising, partial curve].

For the origin of these results see PubChem BioAssay AID662 (National Center for Advancing Translational Sciences (NCATS), 2007).
